PubChem BioAssay AID743454 – Peter MacCallum Cancer Centre | 2014
In all, the deposit lists about 18,000 reagents; shown is a random part of them. 450 of them (2.5%) count as active. 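Single biological run; no consistent viability z cut-off exists, so the class columns, not z-scores, define the calls.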 Reagents against one gene are numbered here.

Purpose: 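Search for knock-downs that restore vorinostat killing in resistant colon cancer cells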 (primary screen)
Cell system: human HCT116-VR colon cancer cells, selected for vorinostat resistance
Reagents: siRNA pool against human genes, 40 nM siRNA pool
Duration: vorinostat for 24 h, read-out about 72 h after transfection
Treatment: vorinostat at 2.5 µM final
Read-out: 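Two measures, CellTiter-Fluor viability and luminescent caspase 3/7 activity, each as fold change against same-plate mock wells, mean of duplicates, then screen-wide robust z-score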
Scale: viability robust z-score: higher = more viable cells than screen typical; caspase robust z-score: higher = more caspase 3/7 activity than screen typical
Hit rule: 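a knock-down is a hit when classed RV1 or RV2 for lowered viability, or CA1 or CA2 for caspase activation; those lethal without drug were dropped; hits were retested singly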

gene symbol | pool no. | viability hit class | caspase hit class | viability robust z-score | caspase robust z-score | call
MRPL39 | 1 | no change | no change | 0.6 | -0.35 | inactive
TAS2R20 | 1 | no change | no change | 0.03 | -0.74 | inactive
KDSR | 1 | no change | no change | 0.12 | -0.46 | inactive
STX1A | 1 | no change | no change | -0.5 | 0.62 | inactive
COPB1 | 1 | no change | no change | -3.57 | 4 | inactive
BCL2A1 | 1 | no change | no change | 1.25 | -0.96 | inactive
SYNJ2BP | 1 | no change | no change | -1.38 | 0.05 | inactive
FES | 1 | no change | no change | -1.24 | 1.29 | inactive
CIMAP1D | 1 | no change | no change | 0.67 | -0.51 | inactive
NKPD1 | 1 | no change | no change | 1.27 | -0.38 | inactive
C10orf90 | 1 | no change | no change | 0.54 | 1.05 | inactive
PTGR1 | 1 | no change | no change | -1.26 | -0.14 | inactive
MYOT | 1 | no change | no change | 0.87 | 0.93 | inactive
PCDHGA2 | 1 | no change | no change | -0.05 | 2.67 | inactive
KCNC1 | 1 | no change | no change | -0.12 | 0.97 | inactive
KIF1C | 1 | no change | no change | -0.59 | 4.33 | inactive
SEMA4B | 1 | no change | no change | 0.56 | 2.38 | inactive
VOPP1 | 1 | no change | no change | 1.11 | 1.34 | inactive
HDAC7 | 1 | no change | no change | -0.39 | -1.1 | inactive
SNTG1 | 1 | no change | no change | -0.96 | -0.1 | inactive

Next part; the last 4 above are carried over.
gene symbol | pool no. | viability hit class | caspase hit class | viability robust z-score | caspase robust z-score | call
SEMA4B | 1 | no change | no change | 0.56 | 2.38 | inactive
VOPP1 | 1 | no change | no change | 1.11 | 1.34 | inactive
HDAC7 | 1 | no change | no change | -0.39 | -1.1 | inactive
SNTG1 | 1 | no change | no change | -0.96 | -0.1 | inactive
SF3A3 | 1 | no change | no change | -4.07 | -0.26 | inactive
PPP2R5B | 1 | no change | no change | 0.14 | 0.56 | inactive
ARHGAP8 | 1 | no change | no change | 1.69 | -0.02 | inactive
TOR1AIP2 | 1 | no change | no change | 0.3 | 0.64 | inactive
TOR1AIP2 | 2 | no change | no change | 1.43 | 1.95 | inactive
ESPN | 1 | no change | no change | -0.76 | 3.62 | inactive
SEMA4G | 1 | no change | no change | -0.76 | 0.34 | inactive
CCR2 | 1 | no change | no change | -1.3 | -0.24 | inactive
TRMT2A | 1 | no change | no change | -1.24 | 1.28 | inactive
SEPTIN12 | 1 | no change | no change | -1.16 | -1.08 | inactive
SP110 | 1 | no change | no change | -0.82 | -0.54 | inactive
PSORS1C2 | 1 | no change | no change | -1.77 | -0.52 | inactive
ZBTB41 | 1 | no change | no change | 1.02 | -0.56 | inactive
DDX3Y | 1 | no change | no change | 0.51 | 0.33 | inactive
ARK2N | 1 | no change | no change | 0.8 | -0.31 | inactive
DNALI1 | 1 | no change | no change | 0.02 | -1.1 | inactive
ANAPC7 | 1 | no change | no change | 2.11 | 0.64 | inactive
OLFM3 | 1 | no change | no change | 0.63 | -1.03 | inactive
ASB17 | 1 | no change | no change | 0.14 | -0.4 | inactive
RICTOR | 1 | no change | no change | 0.92 | -0.92 | inactive
GOLGA8F | 1 | no change | no change | 0.07 | -0.57 | inactive
SLC1A5 | 1 | no change | no change | 0.48 | -0.86 | inactive
NUDT12 | 1 | no change | no change | -0.05 | 0.54 | inactive
C14orf180 | 1 | no change | no change | -0.8 | 1.34 | inactive
RRP8 | 1 | no change | no change | -1.05 | 3.59 | inactive
ADAMTSL2 | 1 | no change | no change | 0.18 | -0.81 | inactive
KPNA3 | 1 | no change | no change | -0.44 | 0.42 | inactive
SLC9A7 | 1 | no change | no change | 0.65 | -0.9 | inactive
BRIX1 | 1 | no change | no change | -1.79 | 0.74 | inactive
CPNE1 | 1 | no change | no change | 0.53 | -0.92 | inactive
TAS2R50 | 1 | no change | no change | 1.04 | -0.4 | inactive
STN1 | 1 | no change | CA2 (caspase activation) | -1.08 | 8.4 | active
SKIL | 1 | no change | no change | 1 | -1.09 | inactive
SGSM2 | 1 | no change | no change | 2.23 | -0.44 | inactive
PRSS33 | 1 | no change | no change | 0.85 | 1.38 | inactive
CEP170B | 1 | no change | no change | -0.64 | 0.66 | inactive
ADCY10 | 1 | no change | no change | 0.22 | -0.58 | inactive
